{"source": "PubChem BioAssay AID1224830 (NIAID, 2016)", "purpose": "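Genes whose knock-down alters the TNF-alpha reporter response to LPS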 (primary screen)", "system": "human THP-1 monocytic leukaemia cells, TNF dual-luciferase reporter clone, PMA-differentiated to macrophage-like cells", "reagent": "siRNA pool against human genes, 50 nM", "timing": "LPS for 4 h, given about 3 days after siRNA transfection", "treatment": "bacterial LPS (TLR4 ligand), 10 ng/ml", "detection": "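TNF firefly reporter luminescence divided by renilla, normalised to the plate median, then turned into a robust z-score for each replicate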", "direction": "TNF reporter robust z-score: higher = stronger TNF reporter response to LPS", "call rule": "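a well is active when its z-score exceeds 2.8 or falls below -1.5; control wells carry no call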", "note": "In all, the deposit lists about 18,000 reagents; this is a part drawn at random. About 2,900 of all reagents (16%) count as active. 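Calls are made per well; low scores hint the gene aids the LPS response, high scores that it dampens it.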 Entries without a mark were called inactive. Repeated entries: four replicate wells of each siRNA pool."}
{"gene": "CHMP4B", "TNF reporter robust z-score": -0.58}
{"gene": "CHMP4B", "TNF reporter robust z-score": 0.36}
{"gene": "CHMP4B", "TNF reporter robust z-score": 0.57}
{"gene": "CHMP4B", "TNF reporter robust z-score": 1.32}
{"gene": "SNX4", "TNF reporter robust z-score": 0.21}
{"gene": "SNX4", "TNF reporter robust z-score": -0.41}
{"gene": "SNX4", "TNF reporter robust z-score": 0.24}
{"gene": "SNX4", "TNF reporter robust z-score": -1.08}
{"gene": "MYOC", "TNF reporter robust z-score": -0.83}
{"gene": "MYOC", "TNF reporter robust z-score": -0.47}
{"gene": "MYOC", "TNF reporter robust z-score": -0.55}
{"gene": "MYOC", "TNF reporter robust z-score": 0.51}
{"gene": "KDM5A", "TNF reporter robust z-score": -0.31}
{"gene": "KDM5A", "TNF reporter robust z-score": -0.19}
{"gene": "KDM5A", "TNF reporter robust z-score": 0.58}
{"gene": "KDM5A", "TNF reporter robust z-score": 0.86}
{"gene": "PDLIM3", "TNF reporter robust z-score": -0.56}
{"gene": "PDLIM3", "TNF reporter robust z-score": 0.43}
{"gene": "PDLIM3", "TNF reporter robust z-score": -0.34}
{"gene": "PDLIM3", "TNF reporter robust z-score": 0.92}
{"gene": "OR51B6", "TNF reporter robust z-score": -0.25}
{"gene": "OR51B6", "TNF reporter robust z-score": 0.09}
{"gene": "OR51B6", "TNF reporter robust z-score": -0.57}
{"gene": "OR51B6", "TNF reporter robust z-score": 0.13}
{"gene": "HSPB9", "TNF reporter robust z-score": "4.25 (active)"}
{"gene": "HSPB9", "TNF reporter robust z-score": 1.96}
{"gene": "HSPB9", "TNF reporter robust z-score": 1.35}
{"gene": "HSPB9", "TNF reporter robust z-score": 0.41}
{"gene": "GAD1", "TNF reporter robust z-score": 0.33}
{"gene": "GAD1", "TNF reporter robust z-score": 1.36}
{"gene": "GAD1", "TNF reporter robust z-score": 0.3}
{"gene": "GAD1", "TNF reporter robust z-score": 1.35}
